This note sets out measurements from patent US20240287188A1 (KUMHO HT, published 2024).

By UniProt entry, the sequences of proteins in these tests, tags left out. Residues count along the entry.
UniProt P05362, residues 28-480: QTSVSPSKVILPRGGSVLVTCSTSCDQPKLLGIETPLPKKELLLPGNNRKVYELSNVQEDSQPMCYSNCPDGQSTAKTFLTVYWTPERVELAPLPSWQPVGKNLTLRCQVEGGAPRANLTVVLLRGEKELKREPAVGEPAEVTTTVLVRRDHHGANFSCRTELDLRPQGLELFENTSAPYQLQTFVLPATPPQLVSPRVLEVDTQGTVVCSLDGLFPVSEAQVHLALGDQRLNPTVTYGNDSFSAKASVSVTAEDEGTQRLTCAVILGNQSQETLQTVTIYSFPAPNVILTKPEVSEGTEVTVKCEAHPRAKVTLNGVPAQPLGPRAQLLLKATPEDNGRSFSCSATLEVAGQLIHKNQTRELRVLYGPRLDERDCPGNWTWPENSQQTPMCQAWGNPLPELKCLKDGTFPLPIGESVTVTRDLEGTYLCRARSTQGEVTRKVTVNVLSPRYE

First the molecules themselves.
B1: humanized anti-ICAM-1 antibody H17L3 (VH17 + VL3), human IgG4/kappa (antibody, V domains shown)
VH: QVQLVQSGAEVKKPGASVKISCKGSGYTFTDYALHWVRQAPGQRLEWMGVISTYSGNTDYNQKFRGRATITVDTSASTAYMELSSLRSEDTAVYYCARSLYFGSSGFDYWGQGTALTVSS
VL: DVVLTQTPLSSPVTLGQPASISCRSSQTLVYRNGNTYLHWYLQRAGQPPRLLIYKVSNRFSGVPDRFSGSGAGTDFTLKISRVEAEDVGVYFCSQNTHFPYTFGGGTKLEIKT
notes: The Arg at the VL/CL junction is in neither entry
B2: humanized anti-ICAM-1 antibody H17L1 (VH17 + VL1), human IgG4/kappa (antibody, V domains shown)
VH: B1 VH
VL: B1 VL with T7S, S11L, L42Q, A45P, P48S, A72S
B3: humanized anti-ICAM-1 antibody H5L3 (VH5 + VL3), human IgG4/kappa (antibody, V domains shown)
VH: B1 VH with G24A, A68V, T74K, S77T
VL: B1 VL
notes: as for B1
B4: humanized anti-ICAM-1 antibody H4L3 (VH4 + VL3), human IgG4/kappa (antibody, V domains shown)
VH: B1 VH with I20V, G24A, M48I, A68V, I70M, V72R, S77T, M81L
VL: B1 VL
notes: as for B1
B5: humanized anti-ICAM-1 antibody H17L4 (VH17 + VL4), human IgG4/kappa (antibody, V domains shown)
VH: B1 VH
VL: B1 VL with L42Q, A45P
notes: The Arg at the VL/CL junction is in neither entry; also called DNP007; DNP007 antibody (H17L4 antibody)

Positions count from the first letter of the chain named. No constants are given. Whether binding was seen depends on the method and setting. Some entries that bind do so weakly or less than the wild type.

The first experiment concerns the target T1, ICAM-1 protein antigen (R&D System) (human, UniProt P05362 28-480).
T1 construct: The assay paragraphs say only 'ICAM-1 (R&D System)'; also called antigen ICAM-1; ICAM-1 antigen
Briefly: ELISA, ICAM-1 coated 100 ng/well. (In general: In an ELISA, binding on a coated surface is turned into a signal by an enzyme label.)
For B1, the binding entry was “binds”. B2: the binding entry is recorded as “binds”. Still for that read-out and setting: as for B3, the entry is “binds”; as for B4, “binds”. Take B5: the binding entry is “binds”.

The target of another experiment is T1, ICAM-1 protein antigen (R&D System). Briefly: Octet (BLI), antibody on AR2G biosensor, ICAM-1 antigen in solution at 5 concentrations.
With B2, the binding result is reported as “binds”. Take B5: the binding result was “binds”.
